Test results as given in publication PMC5821868.
Results are given in words; binding and its absence hold for the method and conditions named. Some binding calls cover weakened binding; strength is not graded here. Where a sequence is shown, tags or fusion partners need not be part of it.

The chains behind the UniProt entries cited, without tags or fusion partners. Residues count along the entry.
UniProt Q8N423, residues 22-597: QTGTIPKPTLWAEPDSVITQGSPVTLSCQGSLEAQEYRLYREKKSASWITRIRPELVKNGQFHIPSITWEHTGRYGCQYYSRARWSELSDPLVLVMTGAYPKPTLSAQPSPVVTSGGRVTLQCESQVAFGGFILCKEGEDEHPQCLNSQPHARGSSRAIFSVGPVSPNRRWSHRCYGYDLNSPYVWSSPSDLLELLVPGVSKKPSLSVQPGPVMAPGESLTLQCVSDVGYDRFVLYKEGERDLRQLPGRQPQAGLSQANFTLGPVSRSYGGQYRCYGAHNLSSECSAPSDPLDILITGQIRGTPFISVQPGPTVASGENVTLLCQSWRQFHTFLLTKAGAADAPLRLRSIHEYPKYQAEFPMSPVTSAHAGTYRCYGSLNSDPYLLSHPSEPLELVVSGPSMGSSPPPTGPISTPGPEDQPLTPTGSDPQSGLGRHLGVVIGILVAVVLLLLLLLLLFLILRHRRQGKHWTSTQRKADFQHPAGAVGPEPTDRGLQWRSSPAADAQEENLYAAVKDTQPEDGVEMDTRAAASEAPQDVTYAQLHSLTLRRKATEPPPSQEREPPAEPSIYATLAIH

Legend:
[1] = target: ILT-4 expressed on transfected 293T cells (human) (UniProt Q8N423); assay: flow cytometry on cells; ILT-4-transfected 293T cells stained with SEMA4A-Fc, with or without an excess of ILT-4-Fc or mIgG; hIgG as control; only the binder purified
[2] = target: ILT-4 on activated human CD4+ T cells (human (endogenous in activated CD4+ T cells)) (UniProt Q8N423); assay: flow cytometry on cells; purified naive human CD4+ T cells activated with immobilized anti-CD3 and anti-CD28 for 1 day, stained with SEMA4A-Fc with or without an excess of ILT-4-Fc, or with anti-ILT-4 mAb with or without an excess of SEMA4A-Fc; only the binder purified
[3] = target: ILT-4 expressed on H9 cells from the retroviral cDNA library of activated CD4+ T cells (human) (UniProt Q8N423); assay: flow cytometry on cells; expression cloning: H9 cells infected with a retroviral cDNA library of activated CD4+ T cells, stained with APC-conjugated SEMA4A-Fc; six rounds of sorting; insert cloned by PCR and sequenced; only the binder purified
[4] = target: ILT-4 expressed on transfected 293T cells (human) (UniProt Q8N423); assay: receptor array on transfected cells (Applied Biosystems 8200 cellular detection system); 293T cells transfected with plasmids of human transmembrane genes in 384-well plates; 50 ng SEMA4A-Fc and 50 ng anti-human Ig FMAT blue secondary antibody per well; read 24 h after transfection; only the binder purified

- binding [1]: binds
- binding [2]: binds
- binding [3]: binds
- binding [4]: binds
B1: recombinant human SEMA4A-Fc fusion protein (R&D Systems) (Fc fusion, UniProt Q9H3S1 33-683)
chain: GGGQGPMPRVRYYAGDERRALSFFHQKGLQDFDTLLLSGDGNTLYVGAREAILALDIQDPGVPRLKNMIPWPASDRKKSECAFKKKSNETQCFNFIRVLVSYNVTHLYTCGTFAFSPACTFIELQDSYLLPISEDKVMEGKGQSPFDPAHKHTAVLVDGMLYSGTMNNFLGSEPILMRTLGSQPVLKTDNFLRWLHHDASFVAAIPSTQVVYFFFEETASEFDFFERLHTSRVARVCKNDVGGEKLLQKKWTTFLKAQLLCTQPGQLPFNVIRHAVLLPADSPTAPHIYAVFTSQWQVGGTRSSAVCAFSLLDIERVFKGKYKELNKETSRWTTYRGPETNPRPGSCSVGPSSDKALTFMKDHFLMDEQVVGTPLLVKSGVEYTRLAVETAQGLDGHSHLVMYLGTTTGSLHKAVVSGDSSAHLVEEIQLFPDPEPVRNLQLAPTQGAVFVGFSGGVWRVPRANCSVYESCVDCVLARDPHCAWDPESRTCCLLSAPNLNSWKQDMERGNPEWACASGPMSRSLRPQSRPQIIKEVLAVPNSILELPCPHLSALASYYWSHGPAAVPEASSTVYNGSLLLIVQDGVGGLYQCWATENGFSYPVISYWVDSQDQTLALDPELAGIPREHVKVPLTRVSGGAALAAQQSYWPH
